The assay deals with C57BL/6 mice, intracerebral ependymoblastoma, median survival T/C. The assay can be described thus: NCI In Vivo Anticancer Drug Screen. Data for tumor model Ependymoblastoma (intracerebral) in C57BL/6 mice. The following applies: T/C endpoint: median survival time, higher T/C = longer survival. Here is the method: The antitumor activity of compounds was measured in mice bearing transplantable tumors. Survival or tumor size were measured and the results are expressed as the measurement made in the treated group (T) divided by the measurement made in the vehicle treated control group (C). The tumor model used in this assay is Ependymoblastoma (intracerebral) in C57BL/6 mice

Where [1] appears, read: dose: 16.0 mg/kg/injection, schedule: Q01DX005 (ip), vehicle: saline.

The list does not hold the whole screen: it gathers tests that were run many times, whatever their T/C, doses with no T/C, and many T/C values between a quarter and a half above the control. Further doses and runs are listed elsewhere. T/C is the treated group as % of the vehicle group. Some doses have a count of surviving animals in place of a T/C: the source holds a T/C of zero for them, seemingly a mark for toxic or unscored doses. Some survivor counts are full or nearly so, which does not show that the dose was tolerated: survival well below the control is almost never listed, so the zero probably covers shortened survival too. Survivors were counted at the toxicity check, usually on the fifth day, unless a day is given; later deaths do not show. Schedules are NCI's codes, taken here to give the interval after Q, in days (D) or hours (H), and the number of doses after X. Some entries were tested several times; the results are listed from low to high. Some schedule codes hold Z or #, which are not explained here. Where survival is the endpoint, the PubChem record calls one and a half times the control and up active, and a quarter to a half above the control has no call in these data; cut-offs in other NCI protocols can differ. Marks such as (2×) stand for listed records that agree. Some T/C values carry the count of animals alive at the toxicity check (mostly the fifth day); where none is given, no animal had died by that day.

For the molecule `CO[C@H]1C[C@@H]2CC[C@@H](C)[C@@](O)(O2)C(=O)C(=O)N2CCCC[C@H]2C(=O)O[C@H]([C@H](C)C[C@@H]2CC[C@@H](O)[C@H](OC)C2)CC(=O)[C@H](C)C=C(C)[C@@H](O)[C@@H](OC)C(=O)[C@H](C)C[C@H](C)/C=C/C=C/C=C1C`, the T/C runs as follows: (dose: 3.12 mg/kg/injection, schedule: Q01DX009 (ip), vehicle: clinical formulation) 138 % of control; (dose: 6.25 mg/kg/injection, schedule: Q01DX009 (ip), vehicle: clinical formulation) 133 % of control; (dose: 12.5 mg/kg/injection, schedule: Q01DX009 (ip), vehicle: clinical formulation) 146 % of control; (dose: 12.5 mg/kg/injection, schedule: Q01DX009 (ip), vehicle: saline with Tween-80) 136 % of control; (dose: 25.0 mg/kg/injection, schedule: Q01DX009 (ip), vehicle: clinical formulation) 144 % of control; (dose: 25.0 mg/kg/injection, schedule: Q01DX009 (ip), vehicle: saline with Tween-80) 130 % of control. Also, the T/C (dose: 50.0 mg/kg/injection, schedule: Q01DX009 (ip), vehicle: clinical formulation) was 148 % of control [8 of 9 alive] and the T/C (dose: 50.0 mg/kg/injection, schedule: Q01DX009 (ip), vehicle: saline with Tween-80) is 125 % of control [8 of 10 alive]. For the same molecule, the survivor count runs as follows: (dose: 100.0 mg/kg/injection, schedule: Q01DX009 (ip), vehicle: clinical formulation) 9 of 10; (dose: 200.0 mg/kg/injection, schedule: Q01DX009 (ip), vehicle: clinical formulation) 4 of 10.

As for `COc1cccc2c1C(=O)c1c(O)c3c(c(O)c1C2=O)C[C@@](O)(/C(C)=N/NC(=O)c1ccccc1)C[C@@H]3OC1CC(N)C(O)C(C)O1` (stereo partly drawn), the survivor count is, setting by setting: (dose: 8.0 mg/kg/injection, schedule: Q01DX005 (ip), vehicle: saline with Tween-80) 10 of 10; (dose: 8.0 mg/kg/injection, schedule: Q01DX009 (ip), vehicle: saline) 10 of 10; (dose: 16.0 mg/kg/injection, schedule: Q01DX005 (ip), vehicle: saline with Tween-80) 9 of 10; (dose: 32.0 mg/kg/injection, schedule: Q01DX005 (ip), vehicle: saline with Tween-80) 2 of 10.

For the molecule `OC(C1CO1)C(O)C1CO1` (stereo not drawn), the T/C is, setting by setting: (dose: 0.5 mg/kg/injection, schedule: Q01DX005 (ip), vehicle: saline, evaluated on day 50) 116 % of control; (dose: 0.5 mg/kg/injection, schedule: Q01DX005 (ip), vehicle: saline, evaluated on day 60) 105, 106, 111, 113, 120 % of control; (dose: 0.5 mg/kg/injection, schedule: Q01DX005 (ip), vehicle: saline, evaluated on day 90) 102 % of control [4 of 10 alive]; (dose: 1.0 mg/kg/injection, schedule: Q01DX005 (ip), vehicle: saline, evaluated on day 30) 103 and 106 % of control; (dose: 1.0 mg/kg/injection, schedule: Q01DX005 (ip), vehicle: saline, evaluated on day 50) 127 % of control [7 of 8 alive]; (dose: 1.0 mg/kg/injection, schedule: Q01DX005 (ip), vehicle: saline, evaluated on day 60) 103, 112, 116, 118, 121, 128, 301 % of control. Besides, the T/C is, setting by setting: (dose: 1.0 mg/kg/injection, schedule: Q01DX005 (ip), vehicle: saline, evaluated on day 90) 112 % of control [7 of 10 alive]; (dose: 1.0 mg/kg/injection, schedule: Q03HX008 (ip), vehicle: saline) 133 % of control; (dose: 2.0 mg/kg/injection, schedule: Q01DX005 (ip), vehicle: saline, evaluated on day 30) 127 and 128 % of control; (dose: 2.0 mg/kg/injection, schedule: Q01DX005 (ip), vehicle: saline, evaluated on day 50) 106 % of control; (dose: 2.0 mg/kg/injection, schedule: Q01DX005 (ip), vehicle: saline, evaluated on day 60) 112 (2×), 120, 121, 132, 139, 301 % of control; (dose: 2.0 mg/kg/injection, schedule: Q01DX005 (ip), vehicle: saline, evaluated on day 90) 112 % of control [6 of 10 alive]. In addition, the T/C was 133 % of control [9 of 10 alive] (dose: 2.0 mg/kg/injection, schedule: Q03HX008 (ip), vehicle: saline); 129 % of control (dose: 3.0 mg/kg/injection, schedule: Q01DX005 (ip), vehicle: saline); 127 % of control [8 of 10 alive] (dose: 4.0 mg/kg/injection, schedule: Q01DX001 (ip), vehicle: saline); 128, 165, 166 % of control (dose: 4.0 mg/kg/injection, schedule: Q01DX005 (ip), vehicle: saline, evaluated on day 60); 115 % of control [7 of 10 alive] (dose: 4.0 mg/kg/injection, schedule: Q01DX005 (ip), vehicle: saline, evaluated on day 90); 132 % of control (dose: 4.0 mg/kg/injection, schedule: Q01DX005 (oral), vehicle: saline). The T/C runs as follows: (dose: 4.0 mg/kg/injection, schedule: Q## X006 (ip), vehicle: clinical formulation) 141 % of control; (dose: 8.0 mg/kg/injection, schedule: Q01DX001 (ip), vehicle: clinical formulation) 136 % of control; (dose: 8.0 mg/kg/injection, schedule: Q01DX005 (ip), vehicle: saline, evaluated on day 60) 157 % of control; (dose: 8.0 mg/kg/injection, schedule: Q01DX005 (ip), vehicle: saline, evaluated on day 90) 97 % of control [3 of 10 alive]; under setting [1], 98 % of control [3 of 10 alive]. Besides, the survivor count by setting is: (dose: 0.5 mg/kg/injection, schedule: Q01DX005 (ip), vehicle: saline) 10 of 10; (dose: 4.0 mg/kg/injection, schedule: Q01DX005 (ip), vehicle: clinical formulation) 10 of 10; (dose: 4.0 mg/kg/injection, schedule: Q01DX005 (ip), vehicle: saline) 7 of 8, 9 of 10, 10 of 10, 9 of 9; (dose: 4.0 mg/kg/injection, schedule: Q01DX005 (oral), vehicle: clinical formulation) 8 of 10; (dose: 5.0 mg/kg/injection, schedule: Q01DX005 (ip), vehicle: saline) 4 of 7; (dose: 8.0 mg/kg/injection, schedule: Q01DX005 (ip), vehicle: clinical formulation) 8 of 10. Moreover, the survivor count runs as follows: (dose: 8.0 mg/kg/injection, schedule: Q01DX005 (ip), vehicle: saline) 4 of 10, 6 of 10, 9 of 10, 8 of 8; (dose: 8.0 mg/kg/injection, schedule: Q01DX005 (oral), vehicle: clinical formulation) 10 of 10; (dose: 8.0 mg/kg/injection, schedule: Q01DX005 (oral), vehicle: saline) 10 of 10; (dose: 8.0 mg/kg/injection, schedule: Q## X006 (ip), vehicle: clinical formulation) 6 of 10; (dose: 10.0 mg/kg/injection, schedule: Q01DX005 (oral), vehicle: saline) 7 of 7; (dose: 16.0 mg/kg/injection, schedule: Q01DX001 (ip), vehicle: clinical formulation) 3 of 10 and 5 of 10. Moreover, the survivor count was 3 of 10 (dose: 16.0 mg/kg/injection, schedule: Q01DX001 (oral), vehicle: clinical formulation); 4 of 10, 4 of 8, 6 of 10, 8 of 10, 10 of 10 under setting [1]; 7 of 10 (dose: 16.0 mg/kg/injection, schedule: Q01DX005 (oral), vehicle: clinical formulation); 10 of 10 (dose: 16.0 mg/kg/injection, schedule: Q01DX005 (oral), vehicle: saline); 3 of 10 (dose: 32.0 mg/kg/injection, schedule: Q01DX001 (ip), vehicle: clinical formulation); 5 of 10 (dose: 32.0 mg/kg/injection, schedule: Q01DX001 (oral), vehicle: clinical formulation). For the same molecule, the survivor count is 5 of 10 (dose: 32.0 mg/kg/injection, schedule: Q01DX005 (oral), vehicle: clinical formulation); 6 of 10 (dose: 64.0 mg/kg/injection, schedule: Q01DX001 (oral), vehicle: clinical formulation); 3 of 10 and 4 of 10 (dose: 128.0 mg/kg/injection, schedule: Q01DX001 (oral), vehicle: clinical formulation).

(Values after PubChem BioAssay AID222 (DTP/NCI, 2004).)
